Data as given in patent US20170160285A1 (VIB VZW, published 2017).
Results are given in words; binding and its absence hold for the method and conditions named. Some results given as binding are weak or reduced against the parent protein; the word gives no strength.

B1: NANOBODY CA8421 (VHH)
VHH: QVQLVESGGGLVQAGGSLRLSCAASGRTFSNYAMGWFRQAPGKEREFVAHITWTGGITYYSDSVKGRFIISRDNAKNTVNLQMNSLKAEDTAVYYCAADRVPYRFGVPSINEYDYWGQGTQVTVSS
notes: Family 26
B2: NANOBODY CA8408 (VHH)
VHH: QVQLVESGGGLVQAGDSLRLSCAASGLIVSNYAMGWFRQAPGKEREFVAYINWNGGVTYYTNSVKGRFTISRDNAKNTVYLQMNSLKPEDTAVYYCARTSRASVTTRVADFGYWGQGTQVTVSS
notes: Family 6; also called CA8109 (pMESy4, E. coli)
B3: NANOBODY CA8419 (VHH)
VHH: QVQLVESGGGLVQPGGSLRLSCAASGFTFSRFVMNWARQAPGKGLEWVSTINSDGDVTSYADSVKGRFTISRDNAKNTLYLQMNSLKPEDTAVYYCGKGWFLNRRDESRGQGTQVTVSS
notes: Family 24
B4: NANOBODY CA8411 (VHH)
VHH: QVQLVESGGGLVQAGGSLRLSCAASARTFSRYGAGWFRQAPGKEREFVGAITWGGGRTKYADSVKGRFTISRDNSKNTVYLQMNSLKSEDTAVYYCASSSIEFGPLEDTYDYWGQGTQVTVSS
notes: Family 3
B5: NANOBODY CA8322 (VHH)
VHH: QVQLVESEGGLVQPGGSLRLSCAASGFTFKYYYMNWVRQAPGKGLEWVSRINQLGGTSYGDSVKGRFTISRDNAKNTLYLQMNSLVPEDTAVYYCARCPAGAACKVEYDYRGQGTQVTVSS
notes: Family 16; also called CA8338 (pMESy4, E. coli)
B6: NANOBODY CA8318 (VHH)
VHH: QVQLVESGGGRVQAGDSLRLSCAASGRTFSPYAMGWFRQAPGKEREFVATINWSGDYTYYTDSVKGRFTTSRDNAKNTLYLEMNSLNAEDTAVYYCVARVGSPSSSDRAYQYWGQGTQVTVSS
notes: Family 8; also called CA8334 (pMESy4, E. coli)
B7: NANOBODY CA8402 (VHH)
VHH: QVQLVESGGGLVQAGGSLRLSCAASGRTFSNYAMGWFRQAPGKEREFVAAISWSGGKTLYAESVKGRFTISRDNAKNTVYLQMNSLKPEDTAVYYCAATPADLTVVAGPPRIEMWYWGQGTQVTVSS
notes: Family 19; also called CA8431 (pMESy4, E. coli)
B8: NANOBODY CA8405 (VHH)
VHH: QVQLVESGGGLVQDGGSLRLSCTASGRTFSNNAMGWFRQEPGREREFVAAIRWNGIANYADSVKGRFTISGDNAKNTVYLQMNSLKPDDTAVYYCAAAIRDGHNYYASDMRRYDYWGQGTQVTVSS
notes: Family 21; also called CA8433 (pMESy4, E. coli)
B9: NANOBODY CA8406 (VHH)
VHH: QVQLVESGGGLVQPGGSLRLSCAASTNIFNLRSMGWYRQAPGKERELVATITTYNTNYADSVKGRFTISRDNAKKTMYLQMNSLRPEDTAVYYCNLQNRYDAMDYWGKGTQVTVSS
notes: Family 11
B10: NANOBODY CA8314 (VHH)
VHH: QVQLVESGGGLVQAGDSLRLSCTASERAFSRYAMGWFRQAPGKERELVAAVSWAGGTTYYGDSVKGRFTISRDNAKITVYLQMNSLKPEDTAVYYCAAEAREFSVGSYYATEYDYWGQGTQVTVSS
notes: Family 4; also called CA8330 (pMESy4, E. coli)
B11: NANOBODY CA8319 (VHH)
VHH: QVQLVESGGGLVQAGGSLRLSCEASGRTSSSYVMGWFRRVSGKEREFVAAINPTGSSTYYADSVKGRFTISRDNSKNTVYVQMNGLKPEDTAVYYCAATRRDFYIIRNSRPQFDYWGQGTQVTVSS
notes: Family 10
B12: NANOBODY CA8403 (VHH)
VHH: QVQLVESGGGLVQAGGSLRLSCAASTRTFSNYVMGWFRQAPGKEREFVSAITSSGRGTSYADSVKGRFTISRDNAKNTVFLQMNSLKPEDTAVYYCAATAADYVLRSRPSVYSYWGQGTQVTVSS
notes: Family 20; also called CA8432 (pMESy4, E. coli)
B13: NANOBODY CA8316 (VHH)
VHH: QLQLVESGGGLVQAGGSLRLSCAASGDTFSRYVMGWFRQAPGKERTFVVGISGGGGITRYADSVKGRFTISRDNAENTLYLEMNTLNPEDTAVYYCAATPADSAFMRNLRVYDYWGQGTQVTVSS
notes: Family 7; The same nanobody subcloned in pMESy4 and purified from E. coli is CA8332
B14: NANOBODY CA8312 (VHH)
VHH: QVQLVESGGGLVQAGGSKRLSCAASGRPFSNSAMGWFRQAPGKEREFVAAISWSGGNTYYADSVKGRFTISRDNAKNAVYLRMNSLEPEDTAVYYCAGDRQPYVYDLPTAQYQYDYWGQGTQVTVSS
notes: Family 1; also called CA8328 (pMESy4, E. coli)
B15: NANOBODY CA8315 (VHH)
VHH: QVQLVESGGGLVQAGGSLRLSCAASGRTFSNYAMGWFRQTPGKEREFVAAITWSGGATYYADSVKGRFIISRDNTKNTVYLQMNSLKPEDTAVYYCAADRKPYSYYPSDFGSWGQGTQVTVSS
notes: Family 5; also called CA8331 (pMESy4, E. coli)
B16: NANOBODY CA8418 (VHH)
VHH: QVQLVESGGGLVQAGGSLRLSCAASGRTFSNYAMGWFRQAPGKEREFVAALTWSGGNTVYRDSVKGRFIITRDNAKNAVYLQMNSLKPEDTAVYYCASDRRPYRYNIGTAEGEYNYWGQGTQVTVSS
notes: Family 23
B17: NANOBODY CA8424 (VHH)
VHH: QVQLVESGGDLVQAGGSLRLSCAASGGIFIINNMGWYRQTPGNQRELVAEITRAGNSNYADSVKGRFTISRDNAKNTVYLQMNRLKPEDTAVYYCNFNVRYYGEYWGQGTQVTVSS
notes: Family 29; also called CA8444 (pMESy4, E. coli)

How the values were obtained:
[1] = target: RIC8A/Gαi1 complex (non-covalent) (rat) (UniProt Q80ZG1); assay: FACS on single yeast clone displaying the Nb; 1 µM RIC8A-DYLIGHT-405/Gαi1-DYLIGHT-488 complex
[2] = target: T1, Recombinant rat RIC8A (resistance to inhibitors of cholinesterase 8A) (rat) (UniProt Q80ZG1); assay: FACS on single yeast clone displaying the Nb; 1 µM RIC8A-DYLIGHT-405
T1 sequence (looked up): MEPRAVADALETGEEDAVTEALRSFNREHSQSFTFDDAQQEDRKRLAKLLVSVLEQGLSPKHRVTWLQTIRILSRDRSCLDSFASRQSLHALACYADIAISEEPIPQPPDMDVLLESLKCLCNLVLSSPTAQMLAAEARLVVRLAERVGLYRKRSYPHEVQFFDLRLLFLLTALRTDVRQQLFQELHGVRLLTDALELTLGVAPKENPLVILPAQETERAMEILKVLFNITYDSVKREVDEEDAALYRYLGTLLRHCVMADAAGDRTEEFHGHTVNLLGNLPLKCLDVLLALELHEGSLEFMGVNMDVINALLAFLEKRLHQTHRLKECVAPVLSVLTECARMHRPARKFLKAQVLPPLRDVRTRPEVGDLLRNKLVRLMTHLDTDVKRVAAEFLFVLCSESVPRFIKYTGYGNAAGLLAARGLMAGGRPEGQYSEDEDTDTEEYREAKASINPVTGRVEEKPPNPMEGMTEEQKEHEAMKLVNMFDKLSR

[3] = target: RIC8A/Gαi1 complex (non-covalent) (rat) (UniProt Q80ZG1); assay: FACS of yeast cells displaying the Nb, stained with 1 µM RIC8A-DYLIGHT-405/Gαi1-DYLIGHT-488 mixture; black = clone (CA8322 per legend), grey = irrelevant Nb
[4] = target: T1, Recombinant rat RIC8A (resistance to inhibitors of cholinesterase 8A) (rat); assay: FACS of yeast cells displaying the Nb, stained with 1 µM RIC8A-DYLIGHT-405; black = clone (CA8322 per legend), grey = irrelevant Nb
[5] = target: RIC8A/Gαi1 complex (non-covalent) (rat) (UniProt Q80ZG1); assay: FACS of yeast cells displaying the Nb, stained with 1 µM RIC8A-DYLIGHT-405/Gαi1-DYLIGHT-488 mixture; black = clone (CA8316 per legend), grey = irrelevant Nb

| Binder | binding [1] | binding [2] | other results |
| --- | --- | --- | --- |
| B1 | binds | binds |  |
| B2 |  | binds |  |
| B3 | binds | binds |  |
| B4 | binds | binds |  |
| B5 | binds | binds | binding [3]: binds; binding [4]: binds |
| B6 | binds |  |  |
| B7 | binds |  |  |
| B8 | binds |  |  |
| B9 |  | binds |  |
| B10 | binds |  |  |
| B11 | binds |  |  |
| B12 | binds |  |  |
| B13 | binds |  | binding [5]: binds |
| B14 | binds |  |  |
| B15 | binds |  |  |
| B16 | binds | binds |  |
| B17 | binds | binds |  |
